System: post-incisional mechanical allodynia
Assay: animal or person
Settings: Rattus norvegicus, sc, 1 h, read-out: ED50, percent reversal of mechanical allodynia
Source text: Data are expressed as mean±standard error of the mean (S.E.M.), and p<0.05 was accepted as statistically significant.

SMILES: CN1CC[C@]23c4c5ccc(O)c4O[C@H]2[C@@H](O)C=C[C@H]3[C@H]1C5 [morphine]
- ED50: 3.19 mg/kg

From US20240252583A1, “Compositions and Methods for Treating Persistent Postsurgical Pain” (priority 2021, published 2024)
